{"source": "patent US20230287071A1", "note": "These are yes or no findings as the source states them, for the method shown. Binding can be weak; no strength is given.", "data": [{"biological_target": "HLA-B*44:05 (human)", "assay": "UV peptide-exchange ELISA, yield grade", "values": [{"binder": "NEIGQELTGQEW", "note": "[… (SEQ ID NO: 371)]", "binding": "binds"}, {"binder": "EEYKFPSLF", "note": "[… (SEQ ID NO: 372)]", "binding": "binds"}, {"binder": "REDPIVYEI", "note": "[… (SEQ ID NO: 373)]", "binding": "binds"}, {"binder": "NEAEWQEIL", "note": "[… (SEQ ID NO: 374)]", "binding": "binds"}, {"binder": "HEATFGEKRF", "note": "[… (SEQ ID NO: 375)]", "binding": "binds"}, {"binder": "SESDGIEQL", "note": "[… (SEQ ID NO: 376)]", "binding": "binds"}, {"binder": "AEDARGWTA", "note": "[… (SEQ ID NO: 377)]", "binding": "binds"}, {"binder": "QELFLQEVRM", "note": "[… (SEQ ID NO: 378)]", "binding": "binds"}, {"binder": "AENRVGKMEA", "note": "[… (SEQ ID NO: 379)]", "binding": "binds"}, {"binder": "EECGKAFRVF", "note": "[… (SEQ ID NO: 380)]", "binding": "binds"}, {"binder": "EEFCFSVRF", "note": "[… (SEQ ID NO: 30)]", "binding": "binds"}, {"binder": "QELMAFSFAGL", "note": "[… (SEQ ID NO: 381)]", "binding": "binds"}, {"binder": "SELNPLALY", "note": "[… (SEQ ID NO: 382)]", "binding": "binds"}, {"binder": "EEMERDLDMY", "note": "[… (SEQ ID NO: 383)]", "binding": "binds"}, {"binder": "LDGIPTAGW", "note": "[… (SEQ ID NO: 384)]", "binding": "binds"}, {"binder": "LEHPFLVNLW", "note": "[… (SEQ ID NO: 385)]", "binding": "binds"}, {"binder": "EESDYITHY", "note": "[… (SEQ ID NO: 386)]", "binding": "binds"}, {"binder": "GEVQENYKL", "note": "[… (SEQ ID NO: 387)]", "binding": "binds"}, {"binder": "VEIVTIPSL", "note": "[… (SEQ ID NO: 388)]", "binding": "binds"}, {"binder": "DEQRRQNVAY", "note": "[… (SEQ ID NO: 389)]", "binding": "binds"}, {"binder": "GEYNKHAQLW", "note": "[… (SEQ ID NO: 390)]", "binding": "binds"}, {"binder": "MESAKETRY", "note": "[… (SEQ ID NO: 31)]", "binding": "binds"}, {"binder": "TESIGAQIY", "note": "[… (SEQ ID NO: 391)]", "binding": "binds"}, {"binder": "TEVSVLLLTF", "note": "[… (SEQ ID NO: 392)]", "binding": "binds"}, {"binder": "SETILAVGL", "note": "[… (SEQ ID NO: 393)]", "binding": "binds"}, {"binder": "SEILRVTLY", "note": "[… (SEQ ID NO: 394)]", "binding": "binds"}, {"binder": "AEDFVWAQW", "note": "[… (SEQ ID NO: 395)]", "binding": "binds"}, {"binder": "MELLFLDTF", "note": "[… (SEQ ID NO: 396)]", "binding": "binds"}, {"binder": "EECGKAFSVF", "note": "[… (SEQ ID NO: 397)]", "binding": "binds"}, {"binder": "AEIIRYIF", "note": "[AEIIRYIF (SEQ ID NO: 398)]", "binding": "binds"}, {"binder": "IEQADWPEI", "note": "[… (SEQ ID NO: 399)]", "binding": "binds"}, {"binder": "TELGLFGVW", "note": "[… (SEQ ID NO: 400)]", "binding": "binds"}, {"binder": "REYEYDLKW", "note": "[… (SEQ ID NO: 32)]", "binding": "binds"}, {"binder": "VENIFHNF", "note": "[VENIFHNF (SEQ ID NO: 401)]", "binding": "binds"}, {"binder": "IETSSEYFNF", "note": "[… (SEQ ID NO: 402)]", "binding": "binds"}, {"binder": "QESVHVASY", "note": "[… (SEQ ID NO: 403)]", "binding": "binds"}, {"binder": "AEREQVIKL", "note": "[… (SEQ ID NO: 404)]", "binding": "binds"}, {"binder": "YEHAFNSIVW", "note": "[… (SEQ ID NO: 405)]", "binding": "binds"}, {"binder": "GETVVLKNM", "note": "[… (SEQ ID NO: 406)]", "binding": "binds"}, {"binder": "MEFQNTQSY", "note": "[… (SEQ ID NO: 407)]", "binding": "binds"}, {"binder": "QEAKPRATW", "note": "[… (SEQ ID NO: 409)]", "binding": "binds"}, {"binder": "RELEEEFYSL", "note": "[… (SEQ ID NO: 410)]", "binding": "binds"}, {"binder": "AERDLNVTI", "note": "[… (SEQ ID NO: 411)]", "binding": "binds"}, {"binder": "IEYENQKRL", "note": "[… (SEQ ID NO: 33)]", "binding": "binds"}, {"binder": "EESFDSKFY", "note": "[… (SEQ ID NO: 412)]", "binding": "binds"}, {"binder": "TELEPGLTY", "note": "[… (SEQ ID NO: 413)]", "binding": "binds"}, {"binder": "AEGYLDLDGI", "note": "[… (SEQ ID NO: 414)]", "binding": "binds"}, {"binder": "EEAGFPLAY", "note": "[… (SEQ ID NO: 415)]", "binding": "binds"}, {"binder": "DELMRKESQW", "note": "[… (SEQ ID NO: 416)]", "binding": "binds"}, {"binder": "EESFRCLPEW", "note": "[… (SEQ ID NO: 417)]", "binding": "binds"}, {"binder": "GEPRKLLTQDW", "note": "[… (SEQ ID NO: 418)]", "binding": "binds"}, {"binder": "SELSLLSLY", "note": "[… (SEQ ID NO: 419)]", "binding": "binds"}, {"binder": "TEDYSKQAL", "note": "[… (SEQ ID NO: 421)]", "binding": "binds"}, {"binder": "AEPPILYSEY", "note": "[… (SEQ ID NO: 34)]", "binding": "binds"}, {"binder": "EEAQWVRKYF", "note": "[… (SEQ ID NO: 422)]", "binding": "binds"}]}]}
